For 17 molecules, binding results are on record in article PMC3006391.

Amino acid sequences for entries named in this document (tags omitted).
UniProt Q07817: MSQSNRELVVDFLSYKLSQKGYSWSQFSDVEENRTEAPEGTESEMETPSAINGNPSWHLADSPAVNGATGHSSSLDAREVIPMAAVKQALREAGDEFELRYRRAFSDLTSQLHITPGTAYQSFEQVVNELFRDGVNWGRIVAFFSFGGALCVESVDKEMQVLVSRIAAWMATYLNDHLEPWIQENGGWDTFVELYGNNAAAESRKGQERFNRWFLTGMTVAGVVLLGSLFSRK

The labels stand for the following.
B1: Upregulated during skeletal muscle growth 5 (protein, UniProt Q96IX5 1-58)
chain: MAGPESDAQYQFTGIKKYFNSYTLTGRMNCVLATYGSIALIVLYFKLRSKKTPAVKAT
B2: Voltage-dependent anion channel 2 (protein, UniProt P45880-3 1-294)
chain: MATHGQTCARPMCIPPSYADLGKAARDIFNKGFGFGLVKLDVKTKSCSGVEFSTSGSSNTDTGKVTGTLETKYKWCEYGLTFTEKWNTDNTLGTEIAIEDQICQGLKLTFDTTFSPNTGKKSGKIKSSYKRECINLGCDVDFDFAGPAIHGSAVFGYEGWLAGYQMTFDSAKSKLTRNNFAVGYRTGDFQLHTNVNDGTEFGGSIYQKVCEDLDTSVNLAWTSGTNCTRFGIAAKYQLDPTASISAKVNNSSLIGVGYTQTLRPGVKLTLSALVDGKSINAGGHKVGLALELEA
B3: Manose-P-dolichol utilization defect 1 (protein, UniProt O75352-1 1-247)
chain: MAAEADGPLKRLLVPILLPEKCYDQLFVQWDLLHVPCLKILLSKGLGLGIVAGSLLVKLPQVFKILGAKSAEGLSLQSVMLELVALTGTMVYSITNNFPFSSWGEALFLMLQTITICFLVMHYRGQTVKGVAFLACYGLVLLVLLSPLTPLTVVTLLQASNVPAVVVGRLLQAATNYHNGHTGQLSAITVFLLFGGSLARIFTSIQETGDPLMAGTFVVSSLCNGLIAAQLLFYWNAKPPHKQKKAQ
B4: Carbamoyl phosphate synthetase 1 (protein, UniProt P31327-1 39-1500)
chain: LSVKAQTAHIVLEDGTKMKGYSFGHPSSVAGEVVFNTGLGGYPEAITDPAYKGQILTMANPIIGNGGAPDTTALDELGLSKYLESNGIKVSGLLVLDYSKDYNHWLATKSLGQWLQEEKVPAIYGVDTRMLTKIIRDKGTMLGKIEFEGQPVDFVDPNKQNLIAEVSTKDVKVYGKGNPTKVVAVDCGIKNNVIRLLVKRGAEVHLVPWNHDFTKMEYDGILIAGGPGNPALAEPLIQNVRKILESDRKEPLFGISTGNLITGLAAGAKTYKMSMANRGQNQPVLNITNKQAFITAQNHGYALDNTLPAGWKPLFVNVNDQTNEGIMHESKPFFAVQFHPEVTPGPIDTEYLFDSFFSLIKKGKATTITSVLPKPALVASRVEVSKVLILGSGGLSIGQAGEFDYSGSQAVKAMKEENVKTVLMNPNIASVQTNEVGLKQADTVYFLPITPQFVTEVIKAEQPDGLILGMGGQTALNCGVELFKRGVLKEYGVKVLGTSVESIMATEDRQLFSDKLNEINEKIAPSFAVESIEDALKAADTIGYPVMIRSAYALGGLGSGICPNRETLMDLSTKAFAMTNQILVEKSVTGWKEIEYEVVRDADDNCVTVCNMENVDAMGVHTGDSVVVAPAQTLSNAEFQMLRRTSINVVRHLGIVGECNIQFALHPTSMEYCIIEVNARLSRSSALASKATGYPLAFIAAKIALGIPLPEIKNVVSGKTSACFEPSLDYMVTKIPRWDLDRFHGTSSRIGSSMKSVGEVMAIGRTFEESFQKALRMCHPSIEGFTPRLPMNKEWPSNLDLRKELSEPSSTRIYAIAKAIDDNMSLDEIEKLTYIDKWFLYKMRDILNMEKTLKGLNSESMTEETLKRAKEIGFSDKQISKCLGLTEAQTRELRLKKNIHPWVKQIDTLAAEYPSVTNYLYVTYNGQEHDVNFDDHGMMVLGCGPYHIGSSVEFDWCAVSSIRTLRQLGKKTVVVNCNPETVSTDFDECDKLYFEELSLERILDIYHQEACGGCIISVGGQIPNNLAVPLYKNGVKIMGTSPLQIDRAEDRSIFSAVLDELKVAQAPWKAVNTLNEALEFAKSVDYPCLLRPSYVLSGSAMNVVFSEDEMKKFLEEATRVSQEHPVVLTKFVEGAREVEMDAVGKDGRVISHAISEHVEDAGVHSGDATLMLPTQTISQGAIEKVKDATRKIAKAFAISGPFNVQFLVKGNDVLVIECNLRASRSFPFVSKTLGVDFIDVATKVMIGENVDEKHLPTLDHPIIPADYVAIKAPMFSWPRLRDADPILRCEMASTGEVACFGEGIHTAFLKAMLSTGFKIPQKGILIGIQQSFRPRFLGVAEQLHNEGFKLFATEATSDWLNANNVPATPVAWPSQEGQNPSLSSIRKLIRDGSIDLVINLPNNNTKFVHDNYVIRRTAVDSGIPLLTNFQVTKLFAEAVQKSRKVDSKSLFHYRQYSAGKAA
B5: stomatin (EPB72)-like 2 (protein, UniProt Q9UJZ1-1 29-356)
chain: SSGLPRNTVVLFVPQQEAWVVERMGRFHRILEPGLNILIPVLDRIRYVQSLKEIVINVPEQSAVTLDNVTLQIDGVLYLRIMDPYKASYGVEDPEYAVTQLAQTTMRSELGKLSLDKVFRERESLNASIVDAINQAADCWGIRCLRYEIKDIHVPPRVKESMQMQVEAERRKRATVLESEGTRESAINVAEGKKQAQILASEAEKAEQINQAAGEASAVLAKAKAKAEAIRILAAALTQHNGDAAASLTVAEQYVSAFSKLAKDSNTILLPSNPGDVTSMVAQAMGVYGALTKAPVPGTPDSLSSGSSRDVQGTDASLDEELDRVKMS
B6: ATP synthase f subunit (protein, UniProt P56134-2 1-88)
chain: MASVVPVKDKKLLEVKLGELPSWILMRDFSPSGIFGAFQRGYYRYYNKYINVKKGSISGITMVLACYVLFSYSFSYKHLKHERLRKYH
B7: ER-Golgi intermediate compartment 1 (protein, UniProt Q969X5-1 1-290)
chain: MPFDFRRFDIYRKVPKDLTQPTYTGAIISICCCLFILFLFLSELTGFITTEVVNELYVDDPDKDSGGKIDVSLNISLPNLHCELVGLDIQDEMGRHEVGHIDNSMKIPLNNGAGCRFEGQFSINKVPGNFHVSTHSATAQPQNPDMTHVIHKLSFGDTLQVQNIHGAFNALGGADRLTSNPLASHDYILKIVPTVYEDKSGKQRYSYQYTVANKEYVAYSHTGRIIPAIWFRYDLSPITVKYTERRQPLYRFITTICAIIGGTFTVAGILDSCIFTASEAWKKIQLGKMH
B8: Transmembrane emp24 protein transport domain containing 5 (protein, UniProt Q9Y3A6-1 28-229)
chain: FTPSLDSDFTFTLPAGQKECFYQPMPLKASLEIEYQVLDGAGLDIDFHLASPEGKTLVFEQRKSDGVHTVETEVGDYMFCFDNTFSTISEKVIFFELILDNMGEQAQEQEDWKKYITGTDILDMKLEDILESINSIKSRLSKSGHIQTLLRAFEARDRNIQESNFDRVNFWSMVNLVVMVVVSAIQVYMLKSLFEDKRKSRT
B9: KDEL endoplasmic reticulum protein retention receptor 1 (protein, UniProt P24390-1 1-212)
chain: MNLFRFLGDLSHLLAIILLLLKIWKSRSCAGISGKSQVLFAVVFTARYLDLFTNYISLYNTCMKVVYIACSFTTVWLIYSKFKATYDGNHDTFRVEFLVVPTAILAFLVNHDFTPLEILWTFSIYLESVAILPQLFMVSKTGEAETITSHYLFALGVYRTLYLFNWIWRYHFEGFFDLIAIVAGLVQTVLYCDFFYLYITKVLKGKKLSLPA
B10: PRA1 domain family, member 2 (protein, UniProt O60831 1-178)
chain: MSEVRLPPLRALDDFVLGSARLAAPDPCDPQRWCHRVINNLLYYQTNYLLCFGIGLALAGYVRPLHTLLSALVVAVALGVLVWAAETRAAVRRCRRSHPAACLAAVLAVGLLVLWVAGGACTFLFSIAGPVLLILVHASLRLRNLKNKIENKIESIGLKRTPMGLLLEALGQEQEAGS
B11: Hypothetical protein LOC203547 (protein, UniProt Q3ZAQ7-1 1-101)
chain: MERPDKAALNALQPPEFRNESSLASTLKTLLFFTALMITVPIGLYFTTKSYIFEGALGMSNRDSYFYAAIVAVVAVHVVLALFVYVAWNEGSRQWREGKQD
B12: ATP synthase e subunit (protein, UniProt P56385 1-69)
chain: MVPPVQVSPLIKLGRYSALFLGVAYGATRYNYLKPRAEEERRIAAEEKKKQDELKRIARELAEDDSILK
B13: transmembrane emp24-like protein 10 (protein, UniProt P49755-1 32-219)
chain: ISFHLPINSRKCLREEIHKDLLVTGAYEISDQSGGAGGLRSHLKITDSAGHILYSKEDATKGKFAFTTEDYDMFEVCFESKGTGRIPDQLVILDMKHGVEAKNYEEIAKVEKLKPLEVELRRLEDLSESIVNDFAYMKKREEEMRDTNESTNTRVLYFSIFSMFCLIGLATWQVFYLRRFFKAKKLIE
B14: dolichyl-diphosphooligosaccharide-protein glycosyltransferase (protein, UniProt P39656 43-456)
chain: SGPRTLVLLDNLNVRETHSLFFRSLKDRGFELTFKTADDPSLSLIKYGEFLYDNLIIFSPSVEDFGGNINVETISAFIDGGGSVLVAASSDIGDPLRELGSECGIEFDEEKTAVIDHHNYDISDLGQHTLIVADTENLLKAPTIVGKSSLNPILFRGVGMVADPDNPLVLDILTGSSTSYSFFPDKPITQYPHAVGKNTLLIAGLQARNNARVIFSGSLDFFSDSFFNSAVQKAAPGSQRYSQTGNYELAVALSRWVFKEEGVLRVGPVSHHRVGETAPPNAYTVTDLVEYSIVIQQLSNGKWVPFDGDDIQLEFVRIDPFVRTFLKKKGGKYSVQFKLPDVYGVFQFKVDYNRLGYTHLYSSTQVSVRPLQHTQYERFIPSAYPYYASAFSMMLGLFIFSIVFLHMKEKEKSD
B15: Ribophorin I (protein, UniProt P04843 24-607)
chain: ASSEAPPLINEDVKRTVDLSSHLAKVTAEVVLAHLGGGSTSRATSFLLALEPELEARLAHLGVQVKGEDEEENNLEVRETKIKGKSGRFFTVKLPVALDPGAKISVIVETVYTHVLHPYPTQITQSEKQFVVFEGNHYFYSPYPTKTQTMRVKLASRNVESYTKLGNPTRSEDLLDYGPFRDVPAYSQDTFKVHYENNSPFLTITSMTRVIEVSHWGNIAVEENVDLKHTGAVLKGPFSRYDYQRQPDSGISSIRSFKTILPAAAQDVYYRDEIGNVSTSHLLILDDSVEMEIRPRFPLFGGWKTHYIVGYNLPSYEYLYNLGDQYALKMRFVDHVFDEQVIDSLTVKIILPEGAKNIEIDSPYEISRAPDELHYTYLDTFGRPVIVAYKKNLVEQHIQDIVVHYTFNKVLMLQEPLLVVAAFYILFFTVIIYVRLDFSITKDPAAEARMKVACITEQVLTLVNKRIGLYRHFDETVNRYKQSRDISTLNSGKKSLETEHKALTSEIALLQSRLKTEGSDLCDRVSEMQKLDAQVKELVLKSAVEAERLVAGKLKKDTYIENEKLISGKRQELVTKIDHILDAL
B16: Mesenchymal stem cell protein DSCD75 (protein, UniProt Q8WUY1 18-208)
chain: LLDVWYLVRLPCAVLRARLLQPRVRDLLAEQRFPGRVLPSDLDLLLHMNNARYLREADFARVAHLTRCGVLGALRELRAHTVLAASCARHRRSLRLLEPFEVRTRLLGWDDRAFYLEARFVSLRDGFVCALLRFRQHLLGTSPERVVQHLCQRRVEPPELPADLQHWISYNEASSQLLRMESGLSDVTKDQ
B17: Sideroflexin 1 (protein, UniProt Q9H9B4 1-322)
chain: MSGELPPNINIKEPRWDQSTFIGRANHFFTVTDPRNILLTNEQLESARKIVHDYRQGIVPPGLTENELWRAKYIYDSAFHPDTGEKMILIGRMSAQVPMNMTITGCMMTFYRTTPAVLFWQWINQSFNAVVNYTNRSGDAPLTVNELGTAYVSATTGAVATALGLNALTKHVSPLIGRFVPFAAVAAANCINIPLMRQRELKVGIPVTDENGNRLGESANAAKQAITQVVVSRILMAAPGMAIPPFIMNTLEKKAFLKRFPWMSAPIQVGLVGFCLVFATPLCCALFPQKSSMSVTSLEAELQAKIQESHPELRRVYFNKGL

No constants are given. Whether binding was seen depends on the method and setting. Binding seen in cells or lysates may run through a third protein. These calls come from enrichment with a bait or labelling near it, and not all partners need be listed. Tags and fused reporters may be left off the sequences shown.

In the experiment the target is TAP-Bcl-xL (UniProt Q07817). In words: affinity purification with mass spectrometry; Tandem Affinity Purification from CHAPS (1%) extracts of total membranes of HeLa cells stably expressing TAP-Bcl-xL: IgG agarose, TEV cleavage, calmodulin resin, EGTA elution; most abundant Coomassie bands cut and identified by LC-MS/MS; TAP-stop cells as control.
B1: the binding result was “binds”. The result for B2 reads “binds”. With B3, the binding result is “binds”. In the case of B4 it was “binds”; in that of B5, “binds”; in that of B6, “binds”.

Consider B7, for which the binding entry is given as “binds”. In the case of B8 it was “binds”; in that of B9, “binds”. In the case of B10 it was “binds”; in that of B11, “binds”. In the case of B12 it was “binds”; in that of B13, “binds”; in that of B14, “binds”.

With B15, the binding entry was “binds”. For B16, the binding entry is reported as “binds”.

As for B17, the binding entry is recorded as “binds”.
